At least one compound was matched to its structure with a doubt left.
Assays:
Format in all cases: cell-based, human
LNCaP-hr cells [1] = assay: Test of inhibition of PSA production in LNCaP-hr cells (ELISA)
LNCaP-hr cells [2] = assay: Cell proliferation (cell number) of LNCaP-hr cells; details: LNCaP-hr cells compared with LNCaP-FGC
androgen receptors = assay: Reporter assay using LNCaP-hr cells (6k-PSA promoter, firefly luciferase); details: LNCaP-hr cells with PSA promoter-luciferase, 24 hours after addition

Question: What does the source list for `CC(O)(CS(=O)(=O)c1ccc(F)cc1)C(=O)Nc1ccc(C#N)c(C(F)(F)F)c1` (stereo not drawn) [bicalutamide, reference compound]?
Answer: Action on PSA production (LNCaP-hr cells [1]): acted as an agonist in the PSA production at higher concentration; Suppression of cell proliferation (LNCaP-hr cells [2]): far lower than that in LNCap-FGC; Suppressing activity on the reporter gene (androgen receptors): did not show any concentration-dependent suppressing activity on the reporter gene
